± gives the standard error. Many of these values have a large error.
B1: glmS ribozyme (parent)
chain: AUAAAAGCGCCAGAACUACAGAAAUGUAGUUGACGAGGAGGAGGUUUAUCGAAUUUUCGGCGGAUGCCUCCAAA

Variants of: B1
Test: self-cleavage kobs at 2500 uM GlcN6P; higher = faster cleavage; RNA array
Conditions: with glucosamine-6-phosphate
Outline: (§1)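 Glucosamine-6-phosphate, from 40 μM to 10 mM in HEPES/KCl/Mg(OAc)2 buffer, was flowed over sequenced MiSeq chips carrying barcoded ribozyme variants transcribed in situ by E. coli RNA polymerase. A hybridised Cy3 probe tracked the variants at 37 °C as tiles were imaged over ~14 h. kobs, kcat and KM were obtained by fitting normalised per-tile medians to exponential decays and then applying weighted Michaelis–Menten fits across concentrations.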

Variant	self-cleavage kobs at 2500 uM GlcN6P
G32C G62A C68U C71G	5.2e-05 ± 4.4e-05 s⁻¹
U30C A36C C50G G59C	0.000155 ± 0.00013 s⁻¹
U30A U55G C61U	8.72e-05 ± 6.3e-05 s⁻¹
C50G U57G	5.27e-05 ± 2.7e-05 s⁻¹
G43A C68A	2.73e-05 ± 1.6e-05 s⁻¹
G41U A48U	3.01e-05 ± 1.6e-05 s⁻¹
G29U U49G A64G	5.17e-05 ± 3.8e-05 s⁻¹
G37A C50G U69C	3.55e-05 ± 2e-05 s⁻¹
C50A C71U	1.58e-05 ± 9.5e-06 s⁻¹
A42C U54G	2.45e-05 ± 1.7e-05 s⁻¹
G29U U57G	2.24e-05 ± 2.1e-05 s⁻¹
U49A U54A C70G	0.00156 ± 0.0014 s⁻¹
G66U C67A C70G	2.75e-05 ± 2.6e-05 s⁻¹
A52U U56C	1.86e-05 ± 1.4e-05 s⁻¹
C34U A52G U57A U65G U69G C70A	0.00101 ± 0.00062 s⁻¹
A64C U65A	3.98e-05 ± 2.4e-05 s⁻¹
U31C A48U	3.14e-05 ± 1.8e-05 s⁻¹
G29C U54G G60A	0.00475 ± 0.0026 s⁻¹
U47G U57G A64G	2.12e-05 ± 1.9e-05 s⁻¹
A52C C61G G63U C67A	5.07e-05 ± 2.8e-05 s⁻¹
G32A G59A C70U	4.14e-05 ± 2.9e-05 s⁻¹
G29C U46A U54A	4.25e-05 ± 3.4e-05 s⁻¹
G37U U69G	3.03e-05 ± 1.6e-05 s⁻¹
G40C U56A C70A	3.8e-05 ± 2.1e-05 s⁻¹

Variant	self-cleavage kobs at 2500 uM GlcN6P
U31C G32U G59U	3.4e-05 ± 3.1e-05 s⁻¹
A48U U49G	2.4e-05 ± 1.6e-05 s⁻¹
A42C	< 1e-05 s⁻¹
G59A C61G C70G	2.02e-05 ± 1.6e-05 s⁻¹
G37A U69A	1.78e-05 ± 1.4e-05 s⁻¹
G37U G38C C50G A64G C68A	4.74e-05 ± 2.9e-05 s⁻¹
G38A A64G C67U	4.68e-05 ± 3.5e-05 s⁻¹
G37C C71A	2.36e-05 ± 1.7e-05 s⁻¹
A33G C34G G35U A52G U69A	0.000325 ± 0.00017 s⁻¹
U31A A64C	3.13e-05 ± 1.9e-05 s⁻¹
G41A A52U	3.37e-05 ± 2.8e-05 s⁻¹
U47C U57G	2.37e-05 ± 2.1e-05 s⁻¹
U57G G62C C68U C70G	2.65e-05 ± 1.7e-05 s⁻¹
A33U A52U C70U	3.48e-05 ± 2.1e-05 s⁻¹
U49G G51U C68G	4.42e-05 ± 2.5e-05 s⁻¹
A53C C61A	0.00242 ± 0.0018 s⁻¹
C34U G51A U57G U69G	5.57e-05 ± 3.9e-05 s⁻¹
U54A U57A G66U	2.9e-05 ± 2.6e-05 s⁻¹
U45G U46A	0.00288 ± 0.0015 s⁻¹
G43A U56A	2.21e-05 ± 1.5e-05 s⁻¹
G29C G59A C68G U69A	3.67e-05 ± 2.3e-05 s⁻¹
U31G C34A G37U C67U	4.39e-05 ± 3.2e-05 s⁻¹
C50U U55G C68A	4.24e-05 ± 2.7e-05 s⁻¹
G62U C70G	1.73e-05 ± 1.7e-05 s⁻¹

Variant	self-cleavage kobs at 2500 uM GlcN6P
A33U C34U A36C U69G	0.00279 ± 0.0014 s⁻¹
U55C U69G	2.08e-05 ± 1.4e-05 s⁻¹
A48C A64G	1.83e-05 ± 1.2e-05 s⁻¹
U30A A48U	3.1e-05 ± 1.9e-05 s⁻¹
A53G C58G C71G	0.000722 ± 0.00036 s⁻¹
G40U U47A C70G	4.32e-05 ± 2.8e-05 s⁻¹
G29C U49G	< 1e-05 s⁻¹
G43U U45C	1.77e-05 ± 1.2e-05 s⁻¹
A33U G40A	1.04e-05 ± 7.7e-06 s⁻¹
U49A C71U	2.1e-05 ± 2e-05 s⁻¹
U45C U69G	3.47e-05 ± 1.8e-05 s⁻¹
C34U G51A	2.52e-05 ± 1.4e-05 s⁻¹
C50U U54G C70A	6.19e-05 ± 3.2e-05 s⁻¹
U30G U57A C58A	4.74e-05 ± 3.6e-05 s⁻¹
A42G C58U	1.99e-05 ± 1.1e-05 s⁻¹
G59A U69A	2.96e-05 ± 2.6e-05 s⁻¹
A53C U57A C68G C70U	0.000617 ± 0.00037 s⁻¹
U49G C70A	1.79e-05 ± 1.1e-05 s⁻¹
G37C U55C	1.9e-05 ± 1.5e-05 s⁻¹
U46G C58G	2.02e-05 ± 1.2e-05 s⁻¹
C34G G35C U46G	3.86e-05 ± 3.5e-05 s⁻¹
G32C C71A	2.4e-05 ± 1.8e-05 s⁻¹
G41U U65G	0.00072 ± 0.00051 s⁻¹
U54G G60A	3.43e-05 ± 2e-05 s⁻¹

Variant	self-cleavage kobs at 2500 uM GlcN6P
G41U U55G C68U C70U	3.33e-05 ± 2e-05 s⁻¹
G51A	< 1e-05 s⁻¹
G43U G66A	2.6e-05 ± 1.6e-05 s⁻¹
U49G C50U G66U C70U	5.04e-05 ± 3.4e-05 s⁻¹
U45A U54C	0.042 ± 0.024 s⁻¹
U54C G62U U69A	3.35e-05 ± 2.4e-05 s⁻¹
U30C C68G C70U	4.11e-05 ± 2.9e-05 s⁻¹
A39G G59U	1.17e-05 ± 1.1e-05 s⁻¹
A33U U46C C70U	2.82e-05 ± 1.7e-05 s⁻¹
A52U C67G C68U	3.98e-05 ± 2.2e-05 s⁻¹
C58A G66C	4.03e-05 ± 2e-05 s⁻¹
U49G G51A C68G	5.65e-05 ± 4.1e-05 s⁻¹
C58U C61G G66A C67A	4.33e-05 ± 3.1e-05 s⁻¹
A33G C50G G62U	3.29e-05 ± 1.9e-05 s⁻¹
G37C U69G	2.42e-05 ± 1.7e-05 s⁻¹
G63A C71G	3.57e-05 ± 2.4e-05 s⁻¹
U55A C58U C71A	2.16e-05 ± 2.2e-05 s⁻¹
C68A C70U	1.82e-05 ± 1.4e-05 s⁻¹
G60A C67G	1.62e-05 ± 1.5e-05 s⁻¹
G62A C70A	3.84e-05 ± 2.3e-05 s⁻¹
G29C U54A G66U C71U	3.25e-05 ± 3.1e-05 s⁻¹

Variants of: B1
Test: self-cleavage kobs at 10000 uM GlcN6P; higher = faster cleavage; RNA array
Conditions: with glucosamine-6-phosphate
Outline: as §1

Variant	self-cleavage kobs at 10000 uM GlcN6P
C50G U57G	3.92e-05 ± 2.3e-05 s⁻¹
G13U U57A	1.99e-05 ± 1.1e-05 s⁻¹
C11A A12G U30C	3.24e-05 ± 1.8e-05 s⁻¹
C10G C68G	0.00155 ± 0.0012 s⁻¹
G29U U54G C58U U69G	2.62e-05 ± 1.8e-05 s⁻¹
G29C U46G U47A C70G	2.75e-05 ± 1.5e-05 s⁻¹
A14U A53U U57G	2.83e-05 ± 2e-05 s⁻¹
U30C A53U U57G A64C U69G	2.28e-05 ± 1.8e-05 s⁻¹
A6C U30G G32C U45G C50G G60U C67G	0.000448 ± 0.00023 s⁻¹
A6U A15G C67A C71U	2.57e-05 ± 2e-05 s⁻¹
A14G G38U C50G	2e-05 ± 1.9e-05 s⁻¹
A14C U31A A64C	1.78e-05 ± 1.4e-05 s⁻¹
A24C G43U U47A	3.96e-05 ± 2.2e-05 s⁻¹
A52U U56C	2.41e-05 ± 1.2e-05 s⁻¹
C8A C70G	0.000513 ± 0.00034 s⁻¹
A64C U65A	2.5e-05 ± 1.7e-05 s⁻¹
U30G U31C C70G	3.38e-05 ± 2.4e-05 s⁻¹
G7C C10G C67G	1.95e-05 ± 1.9e-05 s⁻¹
G13U U31G U56C	3.28e-05 ± 2.1e-05 s⁻¹
A6U C67A C70U	3.54e-05 ± 1.9e-05 s⁻¹
U30G U55A	0.0235 ± 0.013 s⁻¹
U30A G41C	3.02e-05 ± 1.8e-05 s⁻¹
C10A G29U C70G	2.33e-05 ± 2e-05 s⁻¹
U30G U31A A33U	2.4e-05 ± 1.2e-05 s⁻¹
C10U A12G	1.81e-05 ± 1e-05 s⁻¹
A12U U69G C70A	2.2e-05 ± 1.4e-05 s⁻¹
U31G A64U	1.75e-05 ± 1e-05 s⁻¹

Variant	self-cleavage kobs at 10000 uM GlcN6P
C8G C10G A33G C58U C70U C71G	2.77e-05 ± 2.4e-05 s⁻¹
A48U U49G	1.21e-05 ± 1.1e-05 s⁻¹
A33G G35A U46G C50G	1.83e-05 ± 1.8e-05 s⁻¹
G29A A53G C68G	2.99e-05 ± 1.6e-05 s⁻¹
G32C U47G	1.16e-05 ± 1e-05 s⁻¹
G29A G41C	2.74e-05 ± 1.4e-05 s⁻¹
G29U G44U	2.12e-05 ± 1.5e-05 s⁻¹
G29U G44C	2.35e-05 ± 1.6e-05 s⁻¹
C10U A39U	< 1e-05 s⁻¹
G13U A15G C70A	1.76e-05 ± 1e-05 s⁻¹
G29C U30C G37C C70G	3.09e-05 ± 1.7e-05 s⁻¹
U47C U57G	2.28e-05 ± 1.3e-05 s⁻¹
G29C C70A	2.2e-05 ± 1.2e-05 s⁻¹
G29A A52U C70U	5.28e-05 ± 2.8e-05 s⁻¹
G29A G38U G62U C68A	2.21e-05 ± 2.1e-05 s⁻¹
G43A U56A	1.6e-05 ± 9.5e-06 s⁻¹
G29U U55G G59U C70G	2.48e-05 ± 2.2e-05 s⁻¹
C11G C70U	1.45e-05 ± 1.4e-05 s⁻¹
A12G G29U U31C U47A	3.6e-05 ± 2.7e-05 s⁻¹
C11U C50G	0.000145 ± 0.00011 s⁻¹
G29C A52G U69G	1.89e-05 ± 1.6e-05 s⁻¹
A6G A64G	1.58e-05 ± 1.2e-05 s⁻¹
C11A G59C	2.52e-05 ± 1.4e-05 s⁻¹
U55C U69G	1.73e-05 ± 1.7e-05 s⁻¹
A14C G59U	1.75e-05 ± 1.3e-05 s⁻¹
G29C U49G	1.64e-05 ± 1.1e-05 s⁻¹
A33C G66U	1.76e-05 ± 1.3e-05 s⁻¹

Variant	self-cleavage kobs at 10000 uM GlcN6P
A15C C16A C50G A53G	2.41e-05 ± 1.9e-05 s⁻¹
A6U G40C	1.38e-05 ± 1.3e-05 s⁻¹
A6G A12G	1.15e-05 ± 9.7e-06 s⁻¹
A15C C50G A53G	4.16e-05 ± 2.1e-05 s⁻¹
C8A C50U C67U C70G	3.07e-05 ± 2.3e-05 s⁻¹
A33U G40C C71A	2.6e-05 ± 1.5e-05 s⁻¹
C11A G43U C68U	3.07e-05 ± 2.5e-05 s⁻¹
G32C C71A	1.52e-05 ± 1.2e-05 s⁻¹
G7A U31G	2.19e-05 ± 1.9e-05 s⁻¹
G7A A12C	1.04e-05 ± 1e-05 s⁻¹
U54G G60A	2e-05 ± 1e-05 s⁻¹
U31A C50U A53G	2.62e-05 ± 1.7e-05 s⁻¹
U31G C50A U56G U69G	2.31e-05 ± 2e-05 s⁻¹
G43U G66A	2.68e-05 ± 1.7e-05 s⁻¹
G32A A48U	2.44e-05 ± 1.2e-05 s⁻¹
G32A A48C	2.86e-05 ± 1.8e-05 s⁻¹
G7U A52G C70G	3.88e-05 ± 2.3e-05 s⁻¹
C34U C70A	0.000789 ± 0.00064 s⁻¹
G13C U46G	1.37e-05 ± 1.2e-05 s⁻¹
A33U U56G	2.51e-05 ± 1.4e-05 s⁻¹
A33U U46C C70U	2.1e-05 ± 1.9e-05 s⁻¹
A33C U46A	2.53e-05 ± 1.6e-05 s⁻¹
U31C C50G	1.81e-05 ± 1.2e-05 s⁻¹
U30A C50G	2.04e-05 ± 1.5e-05 s⁻¹
U31A G59U	2.94e-05 ± 1.7e-05 s⁻¹
G13A U49G	2.27e-05 ± 1.4e-05 s⁻¹
